Measured values from publication PMC9583166.
Results are given in words; binding and its absence hold for the method and conditions named. For part of these data: Binding seen in cells or lysates may run through a third protein. Some binding calls cover weakened binding; strength is not graded here.

Protein sequences, listed by entry. Tags and fused reporters are not part of them. Lines headed by an entry give the natural chain unless they say otherwise; changes in a name come on top. Residues count along the entry.
SIN1-RBD (Q9BPZ7, residues 266-373): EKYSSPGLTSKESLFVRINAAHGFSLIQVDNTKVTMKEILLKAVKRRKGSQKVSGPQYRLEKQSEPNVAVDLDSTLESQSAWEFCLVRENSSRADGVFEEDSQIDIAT
SIN1-PH (Q9BPZ7, residues 373-522): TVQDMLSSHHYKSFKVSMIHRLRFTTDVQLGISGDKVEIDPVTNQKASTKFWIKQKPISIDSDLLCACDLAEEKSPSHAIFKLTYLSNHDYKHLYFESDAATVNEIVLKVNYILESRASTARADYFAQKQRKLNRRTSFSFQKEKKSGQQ
UniProt P60953: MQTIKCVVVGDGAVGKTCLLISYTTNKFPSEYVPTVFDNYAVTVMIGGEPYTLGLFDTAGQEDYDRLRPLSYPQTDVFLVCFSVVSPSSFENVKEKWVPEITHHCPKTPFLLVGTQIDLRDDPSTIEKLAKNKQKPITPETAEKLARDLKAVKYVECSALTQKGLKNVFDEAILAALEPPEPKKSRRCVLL
UniProt Q92963: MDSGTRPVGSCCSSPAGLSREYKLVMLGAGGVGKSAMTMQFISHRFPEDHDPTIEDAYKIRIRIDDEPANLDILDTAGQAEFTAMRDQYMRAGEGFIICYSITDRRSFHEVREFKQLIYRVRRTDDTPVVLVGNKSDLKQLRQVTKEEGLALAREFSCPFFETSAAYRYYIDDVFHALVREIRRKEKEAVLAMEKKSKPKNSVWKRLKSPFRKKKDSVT

Tests used:
[1] = target: GST-fused SIN1-RBD (not stated (the printed accession is a human entry)) (UniProt Q9BPZ7); experiment: pull-down; purified GST-fused RBDs on glutathione agarose beads, incubated 1 h with cell lysates with overexpressed FLAG-tagged GTPases; wash buffer 50 mM Tris-HCl, 150 mM NaCl, 10 mM MgCl2; immunoblot; only the target purified
[2] = target: SIN1-RBD (not stated (the printed accession is a human entry)) (UniProt Q9BPZ7); experiment: fluorescence polarisation; SIN1-RBD premixed and pre-incubated with 2x excess SIN1-PH, then titrated to HRAS•mGppNHp; both purified
[3] = target: CDC42 (not stated (the printed accession is a human entry)) (UniProt P60953); experiment: fluorescence polarisation; increasing amounts of SIN1 protein titrated to 1 µM mGppNHp-bound GTPase; 21°C; 30 mM Tris/HCl pH 7.5, 150 mM NaCl, 5 mM MgCl2, 3 mM dithiothreitol; quadratic ligand binding equation; both purified

## RIT1^G30V with FLAG-Tag (from UniProt Q92963 1-219)
[1]
  binding: binds weakly

## SIN1-PH (from UniProt Q9BPZ7 373-522) (domain or fragment)
[2]
  binding: no binding (tested: 2x excess SIN1-PH)

## SIN1-RBD (from UniProt Q9BPZ7 266-373) (domain or fragment)
[3]
  binding: no binding
